No constants are given. Whether binding was seen depends on the method and setting. In cells and extracts the contact can be indirect. Some results given as binding are weak or reduced against the parent protein; the word gives no strength.
Target: PHF3-GFP (endogenous PHF3 tagged with GFP) (human (endogenous in HEK293T)) (UniProt Q92576)
Assay: co-IP; endogenously tagged PHF3-GFP precipitated from HEK293T lysate with rabbit anti-GFP and protein G Dynabeads; partners detected by Western blot

Chains of the proteins cited; added tags and fusions are not shown. Lines headed by an entry give the natural chain unless they say otherwise; changes in a name come on top.
UniProt Q92576: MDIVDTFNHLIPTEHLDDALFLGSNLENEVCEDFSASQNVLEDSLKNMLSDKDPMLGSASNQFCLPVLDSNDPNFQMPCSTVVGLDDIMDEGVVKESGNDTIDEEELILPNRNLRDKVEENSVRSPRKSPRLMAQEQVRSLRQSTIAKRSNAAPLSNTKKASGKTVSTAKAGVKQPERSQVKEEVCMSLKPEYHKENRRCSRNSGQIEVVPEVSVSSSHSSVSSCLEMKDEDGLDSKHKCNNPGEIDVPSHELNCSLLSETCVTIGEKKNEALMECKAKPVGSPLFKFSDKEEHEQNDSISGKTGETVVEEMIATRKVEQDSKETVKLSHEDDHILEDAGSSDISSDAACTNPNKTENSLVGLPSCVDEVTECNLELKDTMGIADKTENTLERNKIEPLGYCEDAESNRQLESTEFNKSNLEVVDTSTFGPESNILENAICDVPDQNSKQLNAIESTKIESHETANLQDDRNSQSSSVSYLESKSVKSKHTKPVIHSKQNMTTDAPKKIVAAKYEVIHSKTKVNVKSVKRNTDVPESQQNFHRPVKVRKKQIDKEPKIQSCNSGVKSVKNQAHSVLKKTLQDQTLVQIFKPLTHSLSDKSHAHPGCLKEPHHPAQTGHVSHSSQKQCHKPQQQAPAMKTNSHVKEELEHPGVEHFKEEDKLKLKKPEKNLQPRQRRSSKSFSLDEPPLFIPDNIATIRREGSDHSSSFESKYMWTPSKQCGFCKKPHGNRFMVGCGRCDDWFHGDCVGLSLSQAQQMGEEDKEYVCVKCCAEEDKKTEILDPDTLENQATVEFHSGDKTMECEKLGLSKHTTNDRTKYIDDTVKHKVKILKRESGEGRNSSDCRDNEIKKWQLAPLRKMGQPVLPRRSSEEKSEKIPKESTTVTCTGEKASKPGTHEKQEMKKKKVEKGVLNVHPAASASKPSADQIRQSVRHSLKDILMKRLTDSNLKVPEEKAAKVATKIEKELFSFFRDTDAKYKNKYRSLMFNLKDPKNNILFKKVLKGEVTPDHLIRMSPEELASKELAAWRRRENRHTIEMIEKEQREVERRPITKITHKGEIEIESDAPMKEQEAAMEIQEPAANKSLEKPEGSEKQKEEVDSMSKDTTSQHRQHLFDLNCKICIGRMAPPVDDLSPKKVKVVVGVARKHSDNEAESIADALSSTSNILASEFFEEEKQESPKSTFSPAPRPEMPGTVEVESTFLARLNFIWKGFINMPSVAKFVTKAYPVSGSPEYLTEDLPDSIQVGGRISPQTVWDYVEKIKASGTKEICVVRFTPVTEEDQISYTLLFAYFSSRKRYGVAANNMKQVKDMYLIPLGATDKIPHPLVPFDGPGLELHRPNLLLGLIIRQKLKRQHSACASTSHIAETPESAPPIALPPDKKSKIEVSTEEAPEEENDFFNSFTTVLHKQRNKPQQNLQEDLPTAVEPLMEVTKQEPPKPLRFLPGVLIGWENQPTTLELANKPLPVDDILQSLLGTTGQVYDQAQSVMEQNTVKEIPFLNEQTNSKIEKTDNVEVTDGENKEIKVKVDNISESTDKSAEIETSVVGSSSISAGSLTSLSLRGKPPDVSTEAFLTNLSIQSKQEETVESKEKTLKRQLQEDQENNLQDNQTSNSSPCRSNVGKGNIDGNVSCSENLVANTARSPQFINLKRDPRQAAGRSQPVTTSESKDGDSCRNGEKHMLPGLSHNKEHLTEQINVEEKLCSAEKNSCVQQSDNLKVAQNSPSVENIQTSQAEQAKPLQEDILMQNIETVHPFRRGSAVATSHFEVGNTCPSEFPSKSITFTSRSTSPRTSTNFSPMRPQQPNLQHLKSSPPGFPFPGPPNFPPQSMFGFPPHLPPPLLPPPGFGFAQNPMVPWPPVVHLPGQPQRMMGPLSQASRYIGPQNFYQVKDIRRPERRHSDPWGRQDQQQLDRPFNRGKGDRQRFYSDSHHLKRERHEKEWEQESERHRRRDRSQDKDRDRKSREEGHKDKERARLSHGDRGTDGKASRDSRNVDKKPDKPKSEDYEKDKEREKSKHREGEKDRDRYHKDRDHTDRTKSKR
UniProt Q9Y5B9: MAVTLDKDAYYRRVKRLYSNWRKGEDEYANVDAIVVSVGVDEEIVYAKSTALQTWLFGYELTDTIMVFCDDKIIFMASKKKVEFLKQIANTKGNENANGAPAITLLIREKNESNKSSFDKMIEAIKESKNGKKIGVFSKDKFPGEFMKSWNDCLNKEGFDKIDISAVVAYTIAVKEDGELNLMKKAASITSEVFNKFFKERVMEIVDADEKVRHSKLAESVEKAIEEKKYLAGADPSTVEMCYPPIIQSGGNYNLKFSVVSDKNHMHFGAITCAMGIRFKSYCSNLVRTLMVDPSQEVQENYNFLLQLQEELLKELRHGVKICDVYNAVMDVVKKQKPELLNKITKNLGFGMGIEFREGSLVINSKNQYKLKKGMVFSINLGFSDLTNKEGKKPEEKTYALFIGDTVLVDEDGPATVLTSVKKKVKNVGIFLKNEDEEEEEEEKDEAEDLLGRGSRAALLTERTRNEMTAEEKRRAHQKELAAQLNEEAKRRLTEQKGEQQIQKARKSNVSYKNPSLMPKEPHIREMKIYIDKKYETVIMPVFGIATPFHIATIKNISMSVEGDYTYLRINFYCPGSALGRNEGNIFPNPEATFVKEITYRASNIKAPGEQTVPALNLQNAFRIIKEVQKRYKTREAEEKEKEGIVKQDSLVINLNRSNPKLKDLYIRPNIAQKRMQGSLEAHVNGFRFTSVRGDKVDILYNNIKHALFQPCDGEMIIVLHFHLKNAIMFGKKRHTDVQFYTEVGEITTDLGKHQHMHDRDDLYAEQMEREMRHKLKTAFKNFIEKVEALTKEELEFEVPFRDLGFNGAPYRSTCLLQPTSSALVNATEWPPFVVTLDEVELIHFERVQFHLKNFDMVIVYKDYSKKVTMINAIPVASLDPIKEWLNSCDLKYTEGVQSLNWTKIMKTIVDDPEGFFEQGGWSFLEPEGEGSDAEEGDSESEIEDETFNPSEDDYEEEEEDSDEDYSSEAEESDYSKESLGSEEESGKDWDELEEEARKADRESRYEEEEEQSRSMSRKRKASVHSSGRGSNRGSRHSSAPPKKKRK

How did the binding turn out when “FACT complex (SPT16 and SSRP1) (from UniProt Q9Y5B9 1-1047; Q08945 1-709)” was run?
Its binding is “binds”.

Source: PMC8526623, “PHF3 regulates neuronal gene expression through the Pol II CTD reader domain SPOC” (Nature Communications, 2021)
